{
  "sequences": {"note": "Sequences of proteins named here, by UniProt entry; tags and fusion partners are left off.", "UniProt Q8TD19": "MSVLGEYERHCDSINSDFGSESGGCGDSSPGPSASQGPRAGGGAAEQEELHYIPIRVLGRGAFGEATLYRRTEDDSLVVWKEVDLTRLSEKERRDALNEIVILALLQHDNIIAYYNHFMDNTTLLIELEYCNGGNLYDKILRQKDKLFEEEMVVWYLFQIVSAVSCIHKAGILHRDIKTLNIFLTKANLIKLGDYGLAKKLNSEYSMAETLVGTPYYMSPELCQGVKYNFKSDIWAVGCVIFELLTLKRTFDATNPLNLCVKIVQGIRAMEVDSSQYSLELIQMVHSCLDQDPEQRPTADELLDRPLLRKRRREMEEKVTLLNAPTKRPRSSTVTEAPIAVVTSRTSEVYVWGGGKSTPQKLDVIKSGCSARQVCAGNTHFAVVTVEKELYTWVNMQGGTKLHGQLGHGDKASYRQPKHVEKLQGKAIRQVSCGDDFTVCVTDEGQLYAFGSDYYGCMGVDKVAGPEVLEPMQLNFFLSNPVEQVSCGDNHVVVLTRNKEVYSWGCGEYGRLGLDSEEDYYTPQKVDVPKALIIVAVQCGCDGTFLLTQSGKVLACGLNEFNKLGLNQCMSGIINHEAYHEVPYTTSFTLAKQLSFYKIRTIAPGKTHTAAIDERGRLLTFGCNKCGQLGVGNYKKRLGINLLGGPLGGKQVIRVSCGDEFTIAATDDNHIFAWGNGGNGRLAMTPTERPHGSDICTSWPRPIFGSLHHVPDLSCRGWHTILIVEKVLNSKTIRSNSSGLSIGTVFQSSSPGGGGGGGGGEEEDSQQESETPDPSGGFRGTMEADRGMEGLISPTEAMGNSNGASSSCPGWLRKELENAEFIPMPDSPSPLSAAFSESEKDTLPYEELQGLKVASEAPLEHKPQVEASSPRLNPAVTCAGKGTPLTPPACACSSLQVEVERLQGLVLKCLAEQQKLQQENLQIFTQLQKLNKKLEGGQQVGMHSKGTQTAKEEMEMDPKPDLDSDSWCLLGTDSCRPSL"},
  "source": "paper doi:10.1101/567305",
  "biological_target": "myc-tagged wild-type NEK9 (human) (UniProt Q8TD19)",
  "test": "affinity purification with mass spectrometry",
  "note": "These are yes or no findings as the source states them, for the method shown. Binding seen in cells or lysates may run through a third protein. These calls come from enrichment with a bait or labelling near it, and not all partners need be listed.",
  "data": [
    {"binder": "EML4 (endogenous), echinoderm microtubule-associated protein-like 4 (protein, UniProt Q9HC35 1-981) MDGFAGSLDDSISAASTSDVQDRLSALESRVQQQEDEITVLKAALADVLRRLAISEDHVASVKKSVSSKGQPSPRAVIPMSCITNGSGANRKPSHTSAVSIAGKETLSSAAKSGTEKKKEKPQGQREKKEESHSNDQSPQIRASPSPQPSSQPLQIHRQTPESKNATPTKSIKRPSPAEKSHNSWENSDDSRNKLSKIPSTPKLIPKVTKTADKHKDVIINQEGEYIKMFMRGRPITMFIPSDVDNYDDIRTELPPEKLKLEWAYGYRGKDCRANVYLLPTGKIVYFIASVVVLFNYEERTQRHYLGHTDCVKCLAIHPDKIRIATGQIAGVDKDGRPLQPHVRVWDSVTLSTLQIIGLGTFERGVGCLDFSKADSGVHLCIIDDSNEHMLTVWDWQKKAKGAEIKTTNEVVLAVEFHPTDANTIITCGKSHIFFWTWSGNSLTRKQGIFGKYEKPKFVQCLAFLGNGDVLTGDSGGVMLIWSKTTVEPTPGKGPKGVYQISKQIKAHDGSVFTLCQMRNGMLLTGGGKDRKIILWDHDLNPEREIEVPDQYGTIRAVAEGKADQFLVGTSRNFILRGTFNDGFQIEVQGHTDELWGLATHPFKDLLLTCAQDRQVCLWNSMEHRLEWTRLVDEPGHCADFHPSGTVVAIGTHSGRWFVLDAETRDLVSIHTDGNEQLSVMRYSIDGTFLAVGSHDNFIYLYVVSENGRKYSRYGRCTGHSSYITHLDWSPDNKYIMSNSGDYEILYWDIPNGCKLIRNRSDCKDIDWTTYTCVLGFQVFGVWPEGSDGTDINALVRSHNRKVIAVADDFCKVHLFQYPCSKAKAPSHKYSAHSSHVTNVSFTHNDSHLISTGGKDMSIIQWKLVEKLSLPQNETVADTTLTKAPVSSTESVIQSNTPTPPPSQPLNETAEEESRISSSPTLLENSLEQTVEPSEDHSEEESEEGSGDLGEPLYEEPCNEISKEQAKATLLEDQQDPSPSS", "values": [
      {"measurement": "binding", "value": "binds"}
    ]}
  ]
}
